# Experimental data taken from PMC9825188.
# Sequences of proteins named here, by UniProt entry; tags and fusion partners are left off.
# UniProt P05412: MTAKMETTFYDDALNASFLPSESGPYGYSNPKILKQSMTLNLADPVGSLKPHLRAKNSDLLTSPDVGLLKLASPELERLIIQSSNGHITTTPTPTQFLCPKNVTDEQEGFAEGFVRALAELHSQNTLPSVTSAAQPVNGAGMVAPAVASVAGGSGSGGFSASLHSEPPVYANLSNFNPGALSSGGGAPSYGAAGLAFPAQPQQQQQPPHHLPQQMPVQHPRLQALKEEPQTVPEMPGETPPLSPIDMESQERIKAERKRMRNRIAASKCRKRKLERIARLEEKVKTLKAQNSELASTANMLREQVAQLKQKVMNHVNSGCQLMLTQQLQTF
# Results are given in words; binding and its absence hold for the method and conditions named. Binding seen in cells or lysates may run through a third protein. Some binding calls cover weakened binding; strength is not graded here. Where a sequence is shown, tags or fusion partners need not be part of it.
# Columns and labels:
# [1] = biological target: T1, N1-gLuc-RBM39 (human) (UniProt Q14498); experiment: split reporter; gaussia luciferase proximity complementation assay (gPCA) in HEK-293 cells transfected with N1-gLuc-RBM39 and N2-gLuc-c-Jun, separately or together; cisplatin added after 24 h for a further 24 h; luciferase activity read in lysate
# T1 sequence: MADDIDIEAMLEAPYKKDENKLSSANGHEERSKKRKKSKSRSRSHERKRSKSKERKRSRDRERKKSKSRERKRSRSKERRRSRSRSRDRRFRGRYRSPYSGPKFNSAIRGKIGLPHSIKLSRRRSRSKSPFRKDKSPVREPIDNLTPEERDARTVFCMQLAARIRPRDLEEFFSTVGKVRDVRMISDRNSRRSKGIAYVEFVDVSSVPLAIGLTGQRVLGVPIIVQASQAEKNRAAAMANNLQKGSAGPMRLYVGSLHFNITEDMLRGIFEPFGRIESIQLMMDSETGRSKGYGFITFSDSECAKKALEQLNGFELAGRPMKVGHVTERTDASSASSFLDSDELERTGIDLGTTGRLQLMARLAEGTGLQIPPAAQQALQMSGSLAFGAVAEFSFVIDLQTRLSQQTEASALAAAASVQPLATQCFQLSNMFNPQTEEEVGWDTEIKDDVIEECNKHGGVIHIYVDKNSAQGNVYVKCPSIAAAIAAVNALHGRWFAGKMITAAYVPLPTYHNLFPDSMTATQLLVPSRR
# [2] = biological target: T2, Flag-RBM39 (RNA binding motif protein 39) (human) (UniProt Q14498); experiment: co-IP; as a1, mock-treated MCF-7 cells (no cisplatin); Flag-RBM39 precipitated with Flag antibody in presence of RNAse A; western blot
# T2 sequence: T1 sequence
# [3] = biological target: T2, Flag-RBM39 (RNA binding motif protein 39) (human); experiment: co-IP; Flag-RBM39 precipitated with Flag antibody and protein A/G magnetic beads from 1 mg MCF-7 extract (20 mM Tris-HCl pH 7.5, 150 mM NaCl, 1% Triton X-100, 10% glycerol) in presence of RNAse A, 4°C; cells treated with cisplatin (50 μM, 24 h) or mock-treated, with or without JNK-IN-8 (1 μM) 3 h before cisplatin; western blot
Substance,binding [1],binding [2],binding [3]
N2-gLuc-c-Jun (from UniProt P05412 1-331),binds,,
c-Jun (from UniProt P05412 1-331),,no binding (condition: cells without cisplatin),binds
